Structures are written as SMILES. Read-outs that look alike come from different tables or passages of the source.

The subject of data set [1] is male diet induced obesity (DIO) mice. Conditions: X ± SE.
Another data set relates to Sprague-Dawley (SD) rats. Description: stomach emptying in male and female SD rats, various dosages (Example 6). Conditions: X ± SE.

Consider `CC[C@H](C)[C@H](NC(=O)[C@H](Cc1ccccc1)NC(=O)[C@H](CCC(=O)O)NC(=O)[C@H](CCCCN)NC(=O)[C@H](C)NC(=O)[C@H](C)NC(=O)[C@H](CCC(N)=O)NC(=O)CNC(=O)[C@H](CCC(=O)O)NC(=O)[C@H](CC(C)C)NC(=O)[C@H](Cc1ccc(O)cc1)NC(=O)[C@H](CO)NC(=O)[C@H](CO)NC(=O)[C@@H](NC(=O)[C@H](CC(=O)O)NC(=O)[C@H](CO)NC(=O)[C@@H](NC(=O)[C@H](Cc1ccccc1)NC(=O)[C@@H](NC(=O)CNC(=O)[C@H](CCC(=O)O)NC(=O)[C@H](C)NC(=O)[C@@H](N)Cc1c[nH]cn1)[C@@H](C)O)[C@@H](C)O)C(C)C)C(=O)N[C@@H](C)C(=O)N[C@@H](Cc1c[nH]c2ccccc12)C(=O)N[C@@H](CC(C)C)C(=O)N[C@H](C(=O)N[C@@H](CCCCN)C(=O)NCC(=O)N[C@@H](CCCNC(=N)N)C(=O)O)C(C)C` [Beinaglutide], for which the “Entire Length of Intestine” value is 43.57 ± 0.87 cm in data set [1] (15 μg/kg); 41.36 ± 1.15 cm in data set [1] (20 μg/kg); 42.14 ± 1.23 cm in data set [1] (25 μg/kg); 42.00 ± 0.53 cm in data set [1] (50 μg/kg); 42.86 ± 0.77 cm in data set [1] (75 μg/kg); 42.71 ± 0.89 cm in data set [1] (100 μg/kg). The “Entire Length of Intestine” value in the data set with Sprague-Dawley (SD) rats (female rats, 10 μg/kg subcutaneous) is 106.51 ± 1.64 cm; with Sprague-Dawley (SD) rats (female rats, 12.5 μg/kg subcutaneous), 105.72 ± 0.42 cm; with Sprague-Dawley (SD) rats (female rats, 15 μg/kg subcutaneous) it was 107.88 ± 2.05 cm; in the data set with Sprague-Dawley (SD) rats (female rats, 30 μg/kg subcutaneous) it was 106.90 ± 1.36 cm; in the data set with Sprague-Dawley (SD) rats (female rats, 45 μg/kg subcutaneous), 107.48 ± 1.06 cm; with Sprague-Dawley (SD) rats (female rats, 60 μg/kg subcutaneous) it was 108.24 ± 1.42 cm. In addition, the “Entire Length of Intestine” value in the data set on Sprague-Dawley (SD) rats (male rats, 10 μg/kg subcutaneous) was determined as 108.83 ± 2.57 cm; with Sprague-Dawley (SD) rats (male rats, 12.5 μg/kg subcutaneous), 108.98 ± 2.28 cm; with Sprague-Dawley (SD) rats (male rats, 15 μg/kg subcutaneous) it was 108.15 ± 2.21 cm; in the data set with Sprague-Dawley (SD) rats (male rats, 30 μg/kg subcutaneous), 111.63 ± 1.57 cm; in the data set with Sprague-Dawley (SD) rats (male rats, 45 μg/kg subcutaneous), 108.99 ± 2.37 cm; in the data set on Sprague-Dawley (SD) rats (male rats, 60 μg/kg subcutaneous), 111.16 ± 1.49 cm.

For the origin of these results see US20210052703A1 (SHANGHAI BENEMAE PHARMACEUTICAL CORPORATION, priority 2018, published 2021).
